Data on 104 sequences can be found in PubChem BioAssay AID1347423 (Functional Genomics Laboratory (NCATS/FGL), 2020).

Out of some 52,000 sequences screened, about 210 (0.4%) were called active.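 Rule for the calls: active = gene whose silencing raises cell survival under the drug, median off-target-corrected z-score across its silencing RNAs 2 or more; inactive = the rest.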 The list shows a part of the results.

The nature of this assay: Resistance to Poly (ADP-Ribose) Polymerase inhibitor: Gene Identification via Genome-wide siRNA Screen. The following applies: mouse BRCA2 R2336H ES cells, olaparib, CellTiter-Glo viability; active compounds read high. Summed up: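 Genome-wide siRNA screen (3 siRNAs/gene, 20 nM) in mouse ES cells carrying hypomorphic BRCA2 R2336H; olaparib 500 nM added 48 h post-transfection, CellTiter-Glo viability 72 h later. Normalized to plate-median negative control; MAD z-scores, gene median, seed-adjusted.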
For GGAGGACGUAACUAAAUCATT against Mbldc1, the z-score was inactive: 0.913.

Consider GCUCACCAAUGAAAUUAAUTT against Xpo7, for which the z-score is inactive: 1.19.

On to GCUAAGAAACGGAAUUUGGTT against Adam7, for which the z-score was inactive: -0.312.

In the case of “GGACUCAAGCAGAUGGUAUTT against 1700018B08Rik”, the z-score was inactive: 0.129.

Regarding CCGGUGAACCCUAUAAAUATT against AI324046, the z-score is inactive: 1.39.

Take GCUACCUGUAUUUAUCUCCTT against Centa1: the z-score is inactive: -0.219.

On to “GGCUUGGUGAGCUACCUACTT against 2310038K02Rik”, for which the z-score is inactive: 1.66.

For the sequence GGAGAAAGCUCGAAAAUGGTT against Prpf8, the z-score is inactive: -1.86.

Regarding GGUUUCCUGAAGUUUUCAATT against Gnaz, the z-score was inactive: -0.422.

With “GCAGCAUCCUGUUUCAUUGTT against 6430573F11Rik”, the z-score was inactive: 0.228.

In the case of GGGCAUCCUGGAUCAUCAUTT against Nalp6, the z-score is inactive: -0.497.

Turning to “GCCAAUAUUUGUUUUUGAGTT against C130037N17Rik”, the z-score is inactive: 0.747.

On to GCAUGAAUUUUGCACGGACTT against Rad18, for which the z-score is inactive: 0.165.

For “GGUUCAUCUUCAGCCAUCCTT against E030027H19Rik”, the z-score is inactive: -2.61.

GUCUCUCUUUUAACAUGCUTT against Ceacam13: the z-score is inactive: 2.49.

On to GGGUUUCCAAGAAGGAAGCTT against AA408296, for which the z-score was inactive: 0.738.

Turning to GGCUGACUACAAUUUAAUCTT against Slitrk4, the z-score is inactive: 0.0423.

GGCCAUGAAUCUUGUUGGGTT against Sgne1: the z-score was inactive: -1.47.

With GGUGGUGUCGGAUUUGAUATT against D10Wsu52e, the z-score was inactive: -1.86.

Take CCCUGUACACAGAAGGACATT against Tmem15: the z-score was inactive: -0.551.

In the case of GGCUGGAAGACAAAACUCCTT against Lmo6, the z-score is inactive: -0.83.

For “GGAAAAUUGGUACCAACUUTT against 1300002C08Rik”, the z-score is inactive: -0.242.

With GGGAAUUUACUGCAGGAUATT against Itln2, the z-score was inactive: -0.711.

As to GGUUGACACAGAUGAAGAGTT against Rdh9, the z-score is inactive: -0.356.

Take GGAGAAACAGCCUAAGAAGTT against Pacsin1: the z-score is inactive: 2.69.

For the sequence “CGAUGGUCUAAGUGAAGCGTT against 2810002O09Rik”, the z-score was inactive: -1.41.

For the sequence GCCUUGAAAUGUCUGUAGCTT against Nkiras1, the z-score is inactive: 0.46.

Consider GGCUGAUUUGCAUAUCGGGTT against Ethe1, for which the z-score is inactive: -0.725.

On to “GGAAUUCACAUUUGACUGUTT against D230002A01Rik”, for which the z-score was inactive: -0.639.

“GGUGUACCAUAGAUGAUCGTT against 3732419F12”: the z-score is inactive: -0.886.

As to GCAAGAACAGCCCUUUCACTT against Ncf4, the z-score is inactive: 0.0626.

Regarding GCCAUAUUGAGGUGAAAGATT against Tnc, the z-score is inactive: 1.17.

Consider GUGACCACUCUGCCAAUUGTT against Olfr1255, for which the z-score was inactive: -0.513.

Consider GGCGGAUCAGCUGUAUAAGTT against Pdha1, for which the z-score is inactive: -0.318.

GGAAACUUAAGCAAAUUCUTT against Gprc6a: the z-score was inactive: 0.294.

As to UACGGGCUGAACAUGUGCCTT against Rps29, the z-score was inactive: -1.27.

Take GGUUGCAUUUUUGGAUUUATT against Fbxw2: the z-score is inactive: 1.37.

Regarding CCAAUUGAGAAUAAACUCATT against Gnrhr, the z-score is inactive: 0.297.

For the sequence GCUCUACCCAAUCAAGACCTT against Asb14, the z-score was inactive: 0.715.

GCACAAAUCUGGUAAGUCATT against Gtf2h1: the z-score is inactive: -2.5.

GGAAAAAAUGGAAAACUGGTT against Rpo1-2: the z-score is inactive: 0.324.

Consider GGGAAGCUAUCUGAAUGCGTT against Otoa, for which the z-score is inactive: 0.816.

As to “CCAUUACAUCAGCUUUAUUTT against E430002G05Rik”, the z-score is inactive: 0.728.

With GGACAUUGAGGACUAUGACTT against Grk1, the z-score was inactive: -1.18.

On to GGAUACAAUCCUUUUGGAUTT against Dnajb1, for which the z-score was inactive: 0.674.

Regarding GAGUGUCCGAUAGACCGUUTT against Rbm4, the z-score was inactive: 1.85.

As to “CCUUCACAUAAGUUUCUGUTT against 1200013B22Rik”, the z-score is inactive: -0.482.

Turning to GCUUUUCCUACCGUAAGCCTT against BC025546, the z-score is inactive: -1.84.

With GCCACUCAAUAAUCGCUGUTT against Car10, the z-score was inactive: 0.317.

For the sequence CGGUACUUAGACUGCAUCATT against Agxt2l1, the z-score is inactive: 1.32.

Consider CCAGAUAAUAAUUUGGAUGTT against Dhx9, for which the z-score was inactive: 0.107.

On to GCAGUGAAUGAACCGCUGUTT against Cd59a, for which the z-score is inactive: 1.27.

Regarding “GGAAGGUGAUGCACUAUUATT against D230016N13Rik”, the z-score was inactive: -1.78.

GUGUUCAGCACCCUGGCAATT against Klra3: the z-score is inactive: -0.431.

Turning to GGCUCCUGUACCACCAAAATT against Wnt7b, the z-score is inactive: -2.33.

For the sequence GGGAAAAGAUCGACAAAGATT against Plk2, the z-score was inactive: -0.123.

Turning to “GGAAACAGUAGAAGAUGAGTT against 2810453I06Rik”, the z-score is inactive: 0.994.

On to CCUGAAGAUGAAUUAUUGCTT against Plg, for which the z-score was inactive: 2.39.

On to GGGCAGAGGCAUUUCUGUATT against Psg23, for which the z-score is inactive: 0.868.

Take GGUCUCUGAAGACAAAAAATT against Sema4d: the z-score is inactive: -0.0806.

On to GGCAAUAGCUUUACCUAUGTT against Lzts2, for which the z-score was inactive: -0.436.

As to “GGUGUAGACUCCAACAUGUTT against 2310044P18Rik”, the z-score is inactive: -0.688.

Turning to “GUGAAAUCUAUGGAGAAUGTT against 1200003C05Rik”, the z-score is inactive: 0.0036.

On to “GGUCAGCUAUCUAAUGAUUTT against 2310056P07Rik”, for which the z-score is inactive: -0.459.

As to CCCACCUUUGUCAACCAAATT against Pcdhga10, the z-score is inactive: -0.536.

Consider CCAUAUGGAGUUCUCUAUATT against Bxdc1, for which the z-score is inactive: -0.158.

In the case of “CCUAGAGAACUCUACCUGCTT against 2400008B06Rik”, the z-score is inactive: 0.213.

For the sequence GAGUGAGAAAGCCAGAGACTT against Acaa1, the z-score is inactive: -0.208.

For GCCUCUAAGAAUUCAGGAATT against Fxc1, the z-score was inactive: 0.704.

As for GUGAGCAGUGCUUUGAUCUTT against Tff2, the z-score is inactive: 0.459.

On to GGCAGAAGAAGUAUUCUAUTT against Sgk, for which the z-score was inactive: 0.208.

Consider CCAAGUUGGCUUUAAUUGCTT against Abcb4, for which the z-score was inactive: 1.98.

Consider GGAUUUUUAGUGUUUGACATT against Rab39, for which the z-score was inactive: -0.583.

With GCUUCUACGGCAAAUGAAUTT against Cdr2, the z-score was inactive: 1.68.

As for “GCCAACUACGUAUAUACAUTT against 4921511C20Rik”, the z-score is inactive: 0.266.

Consider GGACUUGAUCAACUCUAUCTT against Supt3h, for which the z-score was inactive: 1.54.

For the sequence “GCAAGCUUAGUGAAACUCUTT against 4632417N05Rik”, the z-score was inactive: -0.877.

GGAAGAAUUAAACGAUUACTT against Crnkl1: the z-score is inactive: -0.11.

Consider GCCGCUCUACAUAGAAGUUTT against Uxs1, for which the z-score was inactive: 0.314.

Regarding GGAUGACACCAAGUUCAAATT against Kcnb1, the z-score was inactive: -0.0516.

As to “GCAACUACCCAAGUGGAAGTT against 2410004F06Rik”, the z-score was inactive: 1.83.

Turning to GCUGGUGUCGGCAAAUCCUTT against Prkwnk1, the z-score is inactive: -0.224.

On to GGAAAAUGAUAGCAGACAUTT against BC005471, for which the z-score is inactive: -1.83.

As to GCAACCUUGACGUAAAUGUTT against Bsg, the z-score was inactive: -0.876.

GCAUAGAAACCAUGCACAUTT against Mte1: the z-score was inactive: 1.28.

Regarding CCUCAAUGACCUUAAAGAATT against Sh3glb1, the z-score was inactive: 0.443.

Consider GCCGUGAUGUUGUCACUGATT against Ppp2r5d, for which the z-score is inactive: -0.706.

For the sequence GGUCUUUGAGUUAAACCAUTT against Cdc7, the z-score is inactive: -1.75.

Regarding GCCUCCUCAUAAUCCACAATT against Klk11, the z-score is inactive: 0.924.

Take CCAUCGUUGUUUCUUACACTT against Olfr922: the z-score is inactive: 0.837.

In the case of GCAGGUCAAUGGACUUAUGTT against Tal1, the z-score was inactive: -1.66.

As to “GCCAAGGUGGAAUUUUUGGTT against 2310016C16Rik”, the z-score is inactive: 0.667.

Regarding GGAAGAGCAUAAAAUGUCATT against Trps1, the z-score is inactive: 0.0255.

Consider “GGACUUUGUUCUGGAAUCGTT against 2410017I18Rik”, for which the z-score was inactive: -0.679.

Take GGUUCAGUCAAGAAUUGCUTT against Clecsf9: the z-score was inactive: -1.81.

Take CGGCUUGCUACUUUGGAACTT against Gda: the z-score was inactive: -0.346.

On to GGUGAUCAAACUUUACUCATT against Gfra2, for which the z-score was inactive: 0.373.

On to GCAUAUUAUACCAAGGCCUTT against Tex11, for which the z-score is inactive: 0.0477.

“GGAUCCAGACACCUCAAGATT against 3110035E14Rik”: the z-score is inactive: -0.63.

With GGUCUCUCUGGAAAUAUAATT against Gria2, the z-score is inactive: -1.26.

Regarding “GGGAGUUCAAGCCAGUUAUTT against D11Ertd18e”, the z-score is inactive: -0.335.

With GGUGUCUUCAAGAGUCAUUTT against D3Ucla1, the z-score is inactive: -1.53.

As to CGAUGUGAUGAUUUAGAAGTT against Itgb1, the z-score was inactive: 0.222.

With GGUAAAAUUGUCCAAGGAATT against Dcl1, the z-score was inactive: 0.562.
